“And” between values parts separate entries of the source, which are not always exact repeats. Equal entries are not always repeated. At least one peptide structure holds a part that was inferred or is arguable (an end, a ring closure or a residue).
Test system: doxorubicin-resistant colorectal carcinoma LS174t
Experiment: LS174t human colorectal carcinoma xenograft efficacy
Assay type: in vivo, nude mice
Settings: for Optimal Efficacy Repeat Dose: five doses at five day or 1 week intervals, 60 days; for Optimal Efficacy Repeat Dose / Optimal Efficacy Repeat Dose, molar equivalent dose of doxorubicin: uncorrected; for Optimal Efficacy Repeat Dose, molar equivalent dose of doxorubicin: value in parentheses; for Mean Day of Survival (MDS): animals whose tumors reached 1.5 g prior to Day 60; for long-term survivors to Day 60: Q5DX5, groups of ten
Experimental: In repeat-dose studies in tumor bearing mice, groups of ten mice were dosed with various amounts of prodrug for a total of five doses at either five day or 1 week intervals.

SMILES | Optimal Efficacy Repeat Dose | Optimal Efficacy Repeat Dose, molar equivalent dose of doxorubicin | Mean Day of Survival (MDS) (high dose 68 mg/kg) | long-term survivors to Day 60 (high dose group 68 mg/kg) | Mean Day of Survival (MDS) (low dose 53 mg/kg) | long-term survivors to Day 60 (low dose group 53 mg/kg)
COc1cccc2c1C(=O)c1c(O)c3c(c(O)c1C2=O)C[C@@](O)(C(=O)CO)C[C@@H]3O[C@H]1C[C@H](NC(=O)[C@H](CC(C)C)NC(=O)[C@H](C)NC(=O)[C@H](CC(C)C)NC(=O)CCC(=O)O)[C@H](O)[C@H](C)O1 [Suc-Leu-Ala-Leu-Dox, reference compound] | 63 mg/kg | 38 mg/kg |  |  |  | 
CC[C@H](C)[C@H](NC(=O)CCNC(=O)CCC(=O)O)C(=O)N[C@@H](C)C(=O)N[C@@H](CC(C)C)C(=O)N[C@H]1C[C@H](O[C@H]2C[C@](O)(C(=O)CO)Cc3c(O)c4c(c(O)c32)C(=O)c2c(OC)cccc2C4=O)O[C@@H](C)[C@H]1O [Suc-βAla-Ile-Ala-Leu-Dox] | 68 mg/kg | 38 mg/kg | 23.4 days | 4 and 2 | 29.7 days | 2 and 4
COc1cccc2c1C(=O)c1c(O)c3c(c(O)c1C2=O)C[C@@](O)(C(=O)CO)C[C@@H]3O[C@H]1C[C@H](NC(=O)[C@H](CC(C)C)NC(=O)[C@H](C)NC(=O)[C@H](CC(C)C)NC(=O)CCNC(=O)CCC(=O)O)[C@H](O)[C@H](C)O1 [Suc-βAla-Leu-Ala-Leu-Dox, reference compound] | 71.2 mg/kg | 40 mg/kg |  |  |  | 
